Data from article PMC4650537.
These are yes or no findings as the source states them, for the method shown. In cells and extracts the contact can be indirect. Some results given as binding are weak or reduced against the parent protein; the word gives no strength. Values belong to the binder of their own block, whether it stands above or below them.

Columns and labels:
[1] = target: T1, caspase-3 (human (endogenous in HCT116)), P42574; assay: co-IP; IP with caspase-3 antibody (IP-Cas-3) from lysates of HCT116 WT or C3KO cells treated with DMSO or 5-FU (50 μg/ml) for 24 h, without z-VAD; conditions: remark: other sources report otherwise
T1 chain: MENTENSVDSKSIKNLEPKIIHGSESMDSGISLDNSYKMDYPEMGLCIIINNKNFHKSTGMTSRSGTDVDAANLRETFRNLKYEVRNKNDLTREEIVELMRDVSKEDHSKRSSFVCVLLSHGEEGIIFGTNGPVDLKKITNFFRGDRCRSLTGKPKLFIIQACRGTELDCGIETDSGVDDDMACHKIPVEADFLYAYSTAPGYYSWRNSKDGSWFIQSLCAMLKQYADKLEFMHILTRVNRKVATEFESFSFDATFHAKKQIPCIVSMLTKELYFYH

[2] = target: T2, pro-caspase-8 (human (endogenous in HCT116)), Q14790; assay: co-IP; IP with caspase-8 antibody (IP-Cas-8) from lysates of HCT116 WT or C3KO cells treated with DMSO or 5-FU (50 μg/ml) for 24 h; also with z-VAD (20 μM) and with or without glutathione (GSH, 10 μM); blots quantified (Supplementary Tables S2, S3); conditions: remark: other sources report otherwise
T2 chain: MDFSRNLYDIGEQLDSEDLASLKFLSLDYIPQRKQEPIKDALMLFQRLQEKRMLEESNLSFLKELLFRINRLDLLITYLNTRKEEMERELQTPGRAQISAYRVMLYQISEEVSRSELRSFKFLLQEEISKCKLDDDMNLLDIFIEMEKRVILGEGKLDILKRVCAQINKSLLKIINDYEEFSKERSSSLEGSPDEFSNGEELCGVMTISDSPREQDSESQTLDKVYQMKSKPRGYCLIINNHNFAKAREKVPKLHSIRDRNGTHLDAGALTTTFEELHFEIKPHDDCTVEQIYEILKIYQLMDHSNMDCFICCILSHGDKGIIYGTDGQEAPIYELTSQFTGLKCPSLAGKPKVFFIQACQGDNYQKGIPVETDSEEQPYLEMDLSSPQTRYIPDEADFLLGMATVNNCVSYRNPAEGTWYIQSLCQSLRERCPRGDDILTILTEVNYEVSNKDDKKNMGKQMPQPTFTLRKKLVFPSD

binding [1]: binds
B1: pro-caspase-8, Q14790 1-479 (protein)
chain: T2 chain

binding [2]: binds
B2: caspase-3, P42574 1-277 (protein)
chain: T1 chain
